Data as given in PubChem BioAssay AID1159579 (Peter MacCallum Cancer Centre, 2015)
Here is one part, drawn at random, of about 2,000 reagents tested. Over the whole deposit, 549 (27%) were called active. 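Some migration ratios are negative; siRNAs with too few cells are inactive whatever their migration ratio.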 Unmarked entries are inactive. Reagents against one gene are numbered here. Reagent sequences are not shown. Not given: the time to read-out.

Purpose: 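Retest candidate lymphatic endothelial migration regulators using several independent siRNAs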 (follow-up of hits)
System: human dermal lymphatic endothelial cells
Knock-down reagent: single siRNA against human genes, 25 nM
Measurement: 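Scratch wound imaging measuring area filled by moving cells plus nuclei number, averaged over two wells and scaled to mock-transfected controls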
Direction: migration relative to mock: higher = more migration into the scratch; mean nuclei count: higher = more cells remaining
Rule for the call: 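a ratio of at most 0.6 or at least 1.3 marks altered migration and an active call; a mean nuclei count under 3300 forces an inactive call regardless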
Calls: active = migration changed (impaired or accelerated); inactive = no migration change, or too few cells

no.	target	reagent no.	migration relative to mock	migration and cell number class	mean nuclei count
1	SOD1	1	0.66	no change in migration or cell number	6208
2	SOD1	2	-0.75	too few cells; migration not scored	1700
3	SOD1	3	1.06	no change in migration or cell number	5170
4	SOD1	4	1.23	no change in migration or cell number	4600
5	TRIM51G	1	0.74	no change in migration or cell number	6034
6	TRIM51G	2	0.84	no change in migration or cell number	5494
7	TRIM51G	3	0.37 (active)	migration reduced	4174
8	TRIM51G	4	0.26	too few cells; migration not scored	3172
9	CEP44	1	0.9	no change in migration or cell number	5806
10	CEP44	2	0.91	no change in migration or cell number	6344
11	CEP44	3	1.29	no change in migration or cell number	4746
12	CEP44	4	0.93	no change in migration or cell number	5784
13	GPR84	1	0.6 (active)	migration reduced	6432
14	GPR84	2	0.91	no change in migration or cell number	4225
15	GPR84	3	0.34 (active)	migration reduced	5147
16	GPR84	4	-0.84 (active)	migration reduced	3538
17	TP53I11	1	1.02	no change in migration or cell number	5248
18	TP53I11	2	0.64	no change in migration or cell number	5450
19	TP53I11	3	0.56 (active)	migration reduced	4926
20	TP53I11	4	1.45 (active)	migration increased	5330
21	CYP4F2	1	0.77	no change in migration or cell number	6296
22	CYP4F2	2	0.74	no change in migration or cell number	7265
23	CYP4F2	3	1.02	no change in migration or cell number	8481
24	CYP4F2	4	0.94	no change in migration or cell number	4605
25	CHM	1	1	no change in migration or cell number	5833
26	CHM	2	0.82	no change in migration or cell number	6240
27	CHM	3	0.68	no change in migration or cell number	5965
28	CHM	4	0.75	no change in migration or cell number	5535
29	AGER	1	1.1	no change in migration or cell number	6051
30	AGER	2	0.94	no change in migration or cell number	5854
31	AGER	3	0.62	no change in migration or cell number	5202
32	AGER	4	0.86	no change in migration or cell number	6304
33	PRR21	1	0.62	no change in migration or cell number	5664
34	PRR21	2	0.59 (active)	migration reduced	5415
35	PRR21	3	0.42 (active)	migration reduced	4930
36	PRR21	4	0.66	no change in migration or cell number	6314
37	CNKSR1	1	0.68	no change in migration or cell number	6046
38	CNKSR1	2	0.34 (active)	migration reduced	3586
39	CNKSR1	3	0.72	no change in migration or cell number	5140
40	CNKSR1	4	0.15 (active)	migration reduced	4135
41	MTARC1	1	0.54 (active)	migration reduced	5203
42	MTARC1	2	0.78	no change in migration or cell number	6352
43	MTARC1	3	0.5 (active)	migration reduced	5511
44	MTARC1	4	0.8	no change in migration or cell number	5491
45	DBP	1	0.12 (active)	migration reduced	4796
46	DBP	2	0.96	no change in migration or cell number	6710
47	DBP	3	0.64	no change in migration or cell number	4828
48	DBP	4	0.1 (active)	migration reduced	3350
49	ACOT13	1	0.76	no change in migration or cell number	5619
50	ACOT13	2	1.1	no change in migration or cell number	6680
51	ACOT13	3	0.79	no change in migration or cell number	7444
52	ACOT13	4	0.58 (active)	migration reduced	6788
53	SMPX	1	1.12	no change in migration or cell number	5090
54	SMPX	2	0.96	no change in migration or cell number	6266
55	SMPX	3	0.92	no change in migration or cell number	5288
56	SMPX	4	0.86	no change in migration or cell number	5215
57	ATP6V0D1	1	0.3 (active)	migration reduced	6080
58	ATP6V0D1	2	0.72	no change in migration or cell number	5302
59	ATP6V0D1	3	0.65	no change in migration or cell number	5319
60	ATP6V0D1	4	0.98	no change in migration or cell number	7135
61	TPST2	1	0.48 (active)	migration reduced	5606
62	TPST2	2	0.48 (active)	migration reduced	4907
63	TPST2	3	1.09	no change in migration or cell number	5718
64	TPST2	4	0.92	no change in migration or cell number	6285
65	POGLUT3	1	1.01	no change in migration or cell number	5092
66	POGLUT3	2	0.8	no change in migration or cell number	5459
67	POGLUT3	3	0.82	no change in migration or cell number	6031
68	POGLUT3	4	0.94	no change in migration or cell number	5559
69	L1CAM-AS1	1	0.32 (active)	migration reduced	3907
70	L1CAM-AS1	2	0.51 (active)	migration reduced	3312
71	L1CAM-AS1	3	0.86	no change in migration or cell number	4628
72	L1CAM-AS1	4	0.69	no change in migration or cell number	6102
73	SYNGR2	1	0.38 (active)	migration reduced	6166
74	SYNGR2	2	0.94	no change in migration or cell number	6625
75	SYNGR2	3	0.72	no change in migration or cell number	4232
76	SYNGR2	4	0.9	no change in migration or cell number	7190
77	SHB	1	1.06	no change in migration or cell number	6710
78	SHB	2	0.99	no change in migration or cell number	4588
79	SHB	3	0.77	no change in migration or cell number	5206
80	SHB	4	0.57 (active)	migration reduced	5512
81	FER1L6	1	1.01	no change in migration or cell number	5332
82	FER1L6	2	1.22	no change in migration or cell number	5493
83	FER1L6	3	0.74	no change in migration or cell number	4374
84	FER1L6	4	1.02	no change in migration or cell number	4906
85	CWC22	1	0.67	no change in migration or cell number	5765
86	CWC22	2	0.3 (active)	migration reduced	5154
87	CWC22	3	0.59 (active)	migration reduced	6565
88	CWC22	4	0.75	no change in migration or cell number	6143

8 entries from above, set out differently:
{"target": "TPST2", "reagent no.": 2, "migration relative to mock": "0.48 (active)", "migration and cell number class": "migration reduced", "mean nuclei count": 4907}
{"target": "TPST2", "reagent no.": 3, "migration relative to mock": 1.09, "migration and cell number class": "no change in migration or cell number", "mean nuclei count": 5718}
{"target": "TPST2", "reagent no.": 4, "migration relative to mock": 0.92, "migration and cell number class": "no change in migration or cell number", "mean nuclei count": 6285}
{"target": "POGLUT3", "reagent no.": 1, "migration relative to mock": 1.01, "migration and cell number class": "no change in migration or cell number", "mean nuclei count": 5092}
{"target": "POGLUT3", "reagent no.": 2, "migration relative to mock": 0.8, "migration and cell number class": "no change in migration or cell number", "mean nuclei count": 5459}
{"target": "POGLUT3", "reagent no.": 3, "migration relative to mock": 0.82, "migration and cell number class": "no change in migration or cell number", "mean nuclei count": 6031}
{"target": "POGLUT3", "reagent no.": 4, "migration relative to mock": 0.94, "migration and cell number class": "no change in migration or cell number", "mean nuclei count": 5559}
{"target": "L1CAM-AS1", "reagent no.": 1, "migration relative to mock": "0.32 (active)", "migration and cell number class": "migration reduced", "mean nuclei count": 3907}
